Compound in this experiment: Nc1ncnc2c1ncn2[C@@H]1O[C@H](COP(=O)(O)OP(=O)(O)NP(=O)(O)O)[C@@H](O)[C@H]1O [adenylyl imidodiphosphate]
The experiment is described as follows: NP40-soluble protein abundance relative to vehicle (solubility fold change) (ratio); higher = more soluble protein in presence of AMP-PNP. Summed up:
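Values are fold changes against the detergent-processed vehicle, based on vsn-normalised intensities. Jurkat crude lysate was treated at eight concentrations from 0.1 to 10 mM (10 min at room temperature, then 3 min at 37 °C), solubilised with 0.8% NP40 and benzonase, ultracentrifuged and analysed by TMT-labelled LC-MS/MS over three independent experiments.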

Amino acid sequences for entries named in this document (tags omitted). A change or cut given only in a name is not applied to a line headed by its entry.
UniProt P62312: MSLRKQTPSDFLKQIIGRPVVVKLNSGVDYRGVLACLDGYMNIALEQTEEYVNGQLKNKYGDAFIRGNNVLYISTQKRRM
UniProt Q00169: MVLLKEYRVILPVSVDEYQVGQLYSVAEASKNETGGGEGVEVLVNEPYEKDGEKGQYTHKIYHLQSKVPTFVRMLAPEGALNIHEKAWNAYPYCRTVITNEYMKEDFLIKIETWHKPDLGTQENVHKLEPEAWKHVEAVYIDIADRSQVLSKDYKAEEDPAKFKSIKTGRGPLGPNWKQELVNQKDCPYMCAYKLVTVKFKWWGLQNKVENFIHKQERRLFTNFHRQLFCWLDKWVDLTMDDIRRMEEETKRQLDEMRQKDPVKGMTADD
UniProt P78345: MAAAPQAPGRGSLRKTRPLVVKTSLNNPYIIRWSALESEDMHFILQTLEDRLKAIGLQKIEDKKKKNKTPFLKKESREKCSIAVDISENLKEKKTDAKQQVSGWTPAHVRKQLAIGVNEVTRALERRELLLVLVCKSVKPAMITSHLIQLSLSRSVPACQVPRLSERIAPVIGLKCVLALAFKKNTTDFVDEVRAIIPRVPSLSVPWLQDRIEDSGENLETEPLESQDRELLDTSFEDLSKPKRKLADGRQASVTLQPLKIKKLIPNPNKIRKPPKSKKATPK
UniProt P56589: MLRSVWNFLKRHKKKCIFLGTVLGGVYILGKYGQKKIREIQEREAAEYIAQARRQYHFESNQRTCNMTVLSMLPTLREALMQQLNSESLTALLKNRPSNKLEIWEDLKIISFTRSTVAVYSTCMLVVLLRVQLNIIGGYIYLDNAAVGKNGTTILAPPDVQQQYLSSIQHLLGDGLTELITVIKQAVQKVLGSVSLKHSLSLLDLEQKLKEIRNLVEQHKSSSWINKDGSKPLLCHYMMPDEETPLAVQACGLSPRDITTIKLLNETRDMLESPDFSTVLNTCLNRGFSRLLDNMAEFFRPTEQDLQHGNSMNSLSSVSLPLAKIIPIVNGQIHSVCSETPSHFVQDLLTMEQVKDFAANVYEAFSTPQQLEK
UniProt P61604, whole entry: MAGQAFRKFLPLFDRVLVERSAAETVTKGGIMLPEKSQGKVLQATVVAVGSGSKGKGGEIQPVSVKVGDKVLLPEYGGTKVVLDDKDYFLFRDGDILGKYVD
UniProt Q03933: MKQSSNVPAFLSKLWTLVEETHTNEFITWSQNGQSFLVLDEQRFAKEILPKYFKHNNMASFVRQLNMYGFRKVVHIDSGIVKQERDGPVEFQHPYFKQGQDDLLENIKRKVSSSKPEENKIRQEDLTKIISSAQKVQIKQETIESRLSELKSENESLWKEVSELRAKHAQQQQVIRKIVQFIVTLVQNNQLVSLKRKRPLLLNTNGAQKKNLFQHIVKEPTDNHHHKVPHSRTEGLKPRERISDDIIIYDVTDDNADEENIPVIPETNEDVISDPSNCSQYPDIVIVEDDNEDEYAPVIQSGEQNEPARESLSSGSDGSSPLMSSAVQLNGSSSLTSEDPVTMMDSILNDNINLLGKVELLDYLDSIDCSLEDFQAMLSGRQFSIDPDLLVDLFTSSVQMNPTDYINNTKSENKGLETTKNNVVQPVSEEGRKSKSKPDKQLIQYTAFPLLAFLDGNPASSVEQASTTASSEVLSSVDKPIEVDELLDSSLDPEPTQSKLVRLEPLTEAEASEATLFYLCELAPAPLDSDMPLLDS
UniProt P61019: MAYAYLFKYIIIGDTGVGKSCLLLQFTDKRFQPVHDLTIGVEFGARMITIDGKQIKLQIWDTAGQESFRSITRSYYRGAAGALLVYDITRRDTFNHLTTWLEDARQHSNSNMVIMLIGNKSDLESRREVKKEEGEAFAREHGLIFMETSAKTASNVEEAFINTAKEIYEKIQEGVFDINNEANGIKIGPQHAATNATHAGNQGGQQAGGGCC
UniProt P80217: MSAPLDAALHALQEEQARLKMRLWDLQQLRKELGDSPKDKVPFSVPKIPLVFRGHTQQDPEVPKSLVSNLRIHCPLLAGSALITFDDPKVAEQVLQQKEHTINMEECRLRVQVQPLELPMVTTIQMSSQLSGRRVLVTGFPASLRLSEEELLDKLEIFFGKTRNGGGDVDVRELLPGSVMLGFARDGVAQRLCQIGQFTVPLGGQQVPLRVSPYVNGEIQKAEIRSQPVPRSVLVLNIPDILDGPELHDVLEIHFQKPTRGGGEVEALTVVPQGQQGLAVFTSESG
UniProt Q01850: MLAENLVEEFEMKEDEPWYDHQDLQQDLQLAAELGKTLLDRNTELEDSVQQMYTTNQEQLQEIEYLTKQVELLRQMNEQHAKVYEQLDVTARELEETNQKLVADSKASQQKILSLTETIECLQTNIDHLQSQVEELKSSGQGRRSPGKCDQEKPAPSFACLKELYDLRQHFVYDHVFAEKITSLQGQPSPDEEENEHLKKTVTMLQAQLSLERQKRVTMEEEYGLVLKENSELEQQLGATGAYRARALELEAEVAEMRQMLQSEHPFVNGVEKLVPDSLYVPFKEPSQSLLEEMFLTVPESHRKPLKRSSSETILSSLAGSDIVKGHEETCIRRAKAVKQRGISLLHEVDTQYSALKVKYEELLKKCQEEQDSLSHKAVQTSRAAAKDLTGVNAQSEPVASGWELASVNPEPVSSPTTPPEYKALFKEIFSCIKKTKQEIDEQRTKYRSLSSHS
UniProt P55789: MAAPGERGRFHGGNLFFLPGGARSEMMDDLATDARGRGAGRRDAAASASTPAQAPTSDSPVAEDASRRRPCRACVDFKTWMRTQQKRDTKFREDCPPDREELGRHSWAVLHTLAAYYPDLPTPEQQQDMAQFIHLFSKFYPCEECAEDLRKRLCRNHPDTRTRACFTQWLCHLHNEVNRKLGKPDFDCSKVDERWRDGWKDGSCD
UniProt P57076: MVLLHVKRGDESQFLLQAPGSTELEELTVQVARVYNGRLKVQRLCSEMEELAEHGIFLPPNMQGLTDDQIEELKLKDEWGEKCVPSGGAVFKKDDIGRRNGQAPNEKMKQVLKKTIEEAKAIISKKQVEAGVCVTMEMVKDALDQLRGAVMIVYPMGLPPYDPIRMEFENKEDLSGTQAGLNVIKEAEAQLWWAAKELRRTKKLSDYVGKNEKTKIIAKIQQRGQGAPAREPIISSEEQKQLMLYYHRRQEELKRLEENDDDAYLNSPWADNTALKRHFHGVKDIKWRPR
UniProt P62306, whole entry, looked up: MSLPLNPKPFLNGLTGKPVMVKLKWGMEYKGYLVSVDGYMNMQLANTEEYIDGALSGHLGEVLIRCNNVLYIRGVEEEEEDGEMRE
UniProt Q04446: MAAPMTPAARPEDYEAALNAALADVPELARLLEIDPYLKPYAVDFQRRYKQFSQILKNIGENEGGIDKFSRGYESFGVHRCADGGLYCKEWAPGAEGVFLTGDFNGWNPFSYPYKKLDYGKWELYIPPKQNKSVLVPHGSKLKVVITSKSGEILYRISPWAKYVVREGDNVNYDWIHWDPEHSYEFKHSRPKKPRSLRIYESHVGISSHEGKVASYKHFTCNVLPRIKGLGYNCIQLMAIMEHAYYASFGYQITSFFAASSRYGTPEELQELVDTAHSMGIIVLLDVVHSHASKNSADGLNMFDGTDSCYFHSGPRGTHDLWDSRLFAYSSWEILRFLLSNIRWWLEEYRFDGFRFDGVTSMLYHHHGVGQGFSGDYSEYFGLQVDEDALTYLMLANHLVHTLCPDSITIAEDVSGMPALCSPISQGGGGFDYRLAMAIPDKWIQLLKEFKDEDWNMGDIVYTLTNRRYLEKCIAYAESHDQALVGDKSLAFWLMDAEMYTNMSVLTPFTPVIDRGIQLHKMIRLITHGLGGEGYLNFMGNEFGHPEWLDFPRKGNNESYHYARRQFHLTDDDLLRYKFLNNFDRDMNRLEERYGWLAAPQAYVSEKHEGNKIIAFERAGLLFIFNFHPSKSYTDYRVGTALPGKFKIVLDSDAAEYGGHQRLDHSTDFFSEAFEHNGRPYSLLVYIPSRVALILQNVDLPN
UniProt P56937: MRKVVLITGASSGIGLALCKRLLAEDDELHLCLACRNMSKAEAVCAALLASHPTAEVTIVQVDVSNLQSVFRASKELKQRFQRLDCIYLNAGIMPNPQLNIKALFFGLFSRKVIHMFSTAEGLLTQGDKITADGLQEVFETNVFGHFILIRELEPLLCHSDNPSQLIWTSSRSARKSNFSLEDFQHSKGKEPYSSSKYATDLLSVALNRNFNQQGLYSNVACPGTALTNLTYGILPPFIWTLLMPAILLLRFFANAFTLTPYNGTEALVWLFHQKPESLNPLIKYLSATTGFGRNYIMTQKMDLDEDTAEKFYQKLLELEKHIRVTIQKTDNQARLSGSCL

± gives the standard deviation of the averaged measurements. The entries are a selection whose mix differs from that of the whole data set. Most entries show no effect beyond the scatter of the controls.

With UniProt P63000 and related entries, the NP40-soluble protein abundance amounted to 0.964 ± 0.046 (concentration: 0.1mM) and 1.01 ± 0.029 (concentration: 0.5mM).
With UniProt Q02750, the NP40-soluble protein abundance is, setting by setting: (concentration: 0.1mM) 0.985 ± 0.019; (concentration: 0.5mM) 1.06 ± 0.021.
On the same counts, the results for UniProt P62269 are 1.03 ± 0.015 and 0.99 ± 0.034.
The like results for UniProt Q04864-2|Q04864 were, in that order, 0.981 ± 0.028 and 0.99 ± 0.011.
For the target UniProt P62312, the NP40-soluble protein abundance by setting is: (concentration: 0.1mM) 1.01 ± 0.045; (concentration: 0.5mM) 1.02 ± 0.089.
On the same counts, the results for UniProt P62249 are 1.06 ± 0.034 and 1.04 ± 0.044.
Regarding PITPNA (UniProt Q00169), the NP40-soluble protein abundance reads like this: (concentration: 0.1mM) 0.981 ± 0.014; (concentration: 0.5mM) 0.989 ± 0.033.
The like results for UniProt Q06787 and related entries were, in that order, 0.975 ± 0.024 and 1.01 ± 0.015.
The like results for RPP38 (UniProt P78345) were, in that order, 0.995 ± 0.052 and 0.985 ± 0.096.
The like results for PEX3 (UniProt P56589) were, in that order, 1.01 ± 0.019 and 0.967 ± 0.022.
As for UniProt P61604 and related entries, the NP40-soluble protein abundance (concentration: 0.1mM) amounted to 0.878 ± 0.086 and the NP40-soluble protein abundance (concentration: 0.5mM) was found to be 0.979 ± 0.13.
On the same counts, the results for UniProt Q03933 and related entries are 1.01 ± 0.04 and 1.03 ± 0.065.
The like results for UniProt P62701 were, in that order, 1.04 ± 0.028 and 1 ± 0.072.
On the same counts, the results for RAB2A (UniProt P61019) are 1.03 ± 0.018 and 1.03 ± 0.031.
For the target UniProt P80217 and related entries, the NP40-soluble protein abundance by setting is: (concentration: 0.1mM) 0.961 ± 0.043; (concentration: 0.5mM) 1 ± 0.041.
For the target CDR2 (UniProt Q01850), the NP40-soluble protein abundance reads like this: (concentration: 0.1mM) 0.975 ± 0.029; (concentration: 0.5mM) 0.962 ± 0.011.
The like results for UniProt P62851 were, in that order, 1.04 ± 0.07 and 1.01 ± 0.045.
The like results for UniProt P55789 and related entries were, in that order, 1.05 ± 0.088 and 1.01 ± 0.12.
On the same counts, the results for UniProt P57076 are 0.97 ± 0.076 and 1.02 ± 0.084.
For the target UniProt P62306, the NP40-soluble protein abundance reads like this: (concentration: 0.1mM) 1.03 ± 0.051; (concentration: 0.5mM) 1.03 ± 0.1.
The like results for GBE1 (UniProt Q04446) were, in that order, 0.998 ± 0.019 and 0.959 ± 0.046.
As for UniProt P62857, the NP40-soluble protein abundance by setting is: (concentration: 0.1mM) 1.02 ± 0.052; (concentration: 0.5mM) 0.992 ± 0.081.
On the same counts, the results for UniProt P56937 and related entries are 1.01 ± 0.039 and 0.999 ± 0.026.

The record behind these values is the supplement of paper PMC6411743.
